Laboratory results from patent publication US20230002774A1, “METHODS AND COMPOSTIONS FOR INHIBITING CORONAVIRAL REPLICATION” (California Institute of Technology, priority 2021, published 2023).
Some entries share one result that the patent states for a list of compounds.

Key:
[1] = tested on: HCoV-229E; test: Stage-limited inhibition assay, viral RNA at 8 hpi, HCoV-229E in H1299 cells; assay type: cell-based; settings: 1 mM CB-5083 or 2 mM NMS-873, harvested 8 hpi, range over the two inhibitors
Experimental: (§1) Total cell RNA was extracted using the MagMAX mirVana Total RNA Isolation Kit (Thermo Fisher Scientific) with KingFisher systems (Thermo Fisher Scientific). RNA was quantified using NanoDrop Lite Spectrophotometer (Thermo Fisher Scientific). Total RNA ([…]) was reverse transcribed using the High-Capacity cDNA Reverse Transcription Kit (Thermo Fisher Scientific). cDNA samples were used for quantitative TagMan PCR using TaqMan™ Universal Master Mix II, no UNG (Thermo Fisher Scientific), in an QuantStudio™ 5 System (Thermo Fisher Scientific). FAM-MGB-labeled TaqMan probes for the indicated genes were purchased from Thermo Fisher Scientific. The resulting data were analyzed using Excel and GraphPad Prism 8.
(§2) H1299 cells were treated with 0.1% DMSO, […] CB-5083, or […] of NMS-873 from 30 min prior to virus infection until 8 h post-infection. […] Cells were collected at 8 hpi for viral RNA determination.

[2] = tested on: HCoV-OC43; test: Stage-limited inhibition assay, viral RNA at 8 hpi, HCoV-OC43 in H1299 cells; assay type: cell-based; settings: 1 mM CB-5083 or 2 mM NMS-873, harvested 8 hpi, range over the two inhibitors
Experimental: as §1, §2

Cc1cc(OCc2nnc(SC3CCCC3)n2-c2cccnc2)ccc1-c1ccc(S(C)(=O)=O)cc1 [NMS-873, 3-[3-cyclopentylsulfanyl-5-[[3-methyl-4-(4-methylsulfonylphenyl)phenoxy]methyl]-1,2,4-triazol-4-yl]pyridine]
viral RNA levels reduced, pretreatment to 4 hpi (group 4) [1]: 79-82% | viral RNA levels reduced, pretreatment to 4 hpi (group 4) [2]: 92%-96%
